These are yes or no findings as the source states them, for the method shown. Some entries that bind do so weakly or less than the wild type.
Columns and labels:
human STEAP-1 (human) [1] = target: human STEAP-1 (human) (UniProt Q9UHE8); assay: FACS on PC3 Steap1 PS5.4 cells (exogenous human STEAP-1)
human STEAP-1 (human) [2] = target: human STEAP-1 (human) (UniProt Q9UHE8); assay: FACS on cells expressing STEAP-1
human STEAP-1 (human) [3] = target: human STEAP-1 (human) (UniProt Q9UHE8); assay: FACS on cells expressing human STEAP-1 (panel head HUMAN)
human STEAP-1 (human) [4] = target: human STEAP-1 (human) (UniProt Q9UHE8); assay: FACS on 293 STEAP-1 NT LB50 cells
human STEAP-1 (human) [5] = target: human STEAP-1 (human) (UniProt Q9UHE8); assay: FACS of IgG on STEAP-1 expressing cells
[6] = target: cynomolgus monkey STEAP-1 (cynomolgus monkey); assay: FACS
human STEAP-1 (human) [7] = target: human STEAP-1 (human) (UniProt Q9UHE8); assay: FACS on LNCAP BR cells (endogenous human STEAP-1)
[8] = target: cynomolgus monkey STEAP-1 (cynomolgus monkey); assay: FACS on cells expressing cynomolgus monkey STEAP-1 (panel head CYNO)
human STEAP-1 (human) [9] = target: human STEAP-1 (human) (UniProt Q9UHE8); assay: FACS on 293 Steap1 LB50 cells (exogenous human STEAP-1)
human STEAP-1 (human) [10] = target: human STEAP-1 (human) (UniProt Q9UHE8); assay: FACS of display-normalised Fab phage, aligned histograms; no cell name on the panel, traces as in FIG. 6A (LB50)

By UniProt entry, the sequences of proteins in these tests, tags left out. Where a name states a change or a piece, a line headed by the entry shows the natural chain unless it says otherwise.
UniProt Q9UHE8: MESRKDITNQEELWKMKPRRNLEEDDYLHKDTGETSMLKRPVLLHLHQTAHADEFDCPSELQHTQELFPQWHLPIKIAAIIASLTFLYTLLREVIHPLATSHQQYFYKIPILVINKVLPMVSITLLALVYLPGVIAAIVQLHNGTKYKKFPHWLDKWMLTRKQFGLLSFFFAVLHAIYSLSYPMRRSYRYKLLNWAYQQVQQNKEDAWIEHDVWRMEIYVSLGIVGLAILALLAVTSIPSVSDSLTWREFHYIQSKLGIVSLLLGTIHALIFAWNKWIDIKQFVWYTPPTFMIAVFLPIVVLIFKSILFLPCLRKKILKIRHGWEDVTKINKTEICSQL

Measured: binding

B1: 120 chimera (antibody, V domains shown)
VH: DVQVQESGPGLVKPSQSLSLTCTVTGYSITSDYAWNWIRQFPGNKLEWMGYISNSGSTSYNPSLKSRISITRDTSKNQFFLQLISVTTEDTATYYCARERNYDYDDYYYAMDYWGQGTTLTVSA
VL: DIVMSQSPSSLAVSVGEKVTMSCKSSQSLLYRSNQKNYLAWYQQKPGQSPKLLIYWASTRESGVPDRFTGSGSGTDFTLTISSVKAEDLAVYYCQQYYNYPRTFGGGTKVEIK
binds: human STEAP-1 (human) [1] | human STEAP-1 (human) [2] | human STEAP-1 (human) [3] | human STEAP-1 (human) [4] | human STEAP-1 (human) [5] | [6] | human STEAP-1 (human) [7] | [8] | human STEAP-1 (human) [9]

B2: 37,48 Phage (Fab, V domains shown)
VH: EVQLVESGGGLVQPGGSLRLSCAASGYSITSDYAWNWIRQAPGKGLEWMGYISNSGSTSYNPSLKSRFTISRDNSKNTLYLQMNSLRAEDTAVYYCARERNYDYDDYYYAMDYWGQGTLVTVSS
VL: DIQMTQSPSSLSASVGDRVTITCKSSQSLLYRSNQKNYLAWYQQKPGKAPKLLIYWASTRESGVPSRFSGSGSGTDFTLTISSLQPEDFATYYCQQYYNYPRTFGQGTKVEIKR
binds: human STEAP-1 (human) [10]

Source: patent US20130157289A1
